Data taken from publication PMC12205081.

B1: TSN2 (recombinant) (protein, UniProt Q9FLT0 1-985)
chain: MATGAATENQWLKGRVKAVTSGDCLVITALTHNRAGPPPEKTITLSSLMAPKMARRGGIDEPFAWESREFLRKLCIGKEVAFKVDYKVEAIAGREFGSVYLGNENLAKLVVQNGWAKVRRPGQQNQDKVSPYIAELEQLEEQAQQEGFGRWSKVPGAAEASIRNLPPSAVGDSGNFDAMGLLAASKGKPMEGIVEQVRDGSTIRVYLLPEFQFVQVFVAGLQAPSMGRRQSTQEAVVDPDVTATSNGDASAETRGPLTTAQRLAASAASSVEVSSDPFAMEAKYFTELRVLNRDVRIVLEGVDKFNNLIGSVYYSDGDTVKDLGLELVENGLAKYVEWSANMLDEEAKKKLKATELQCKKNRVKMWANYVPPASNSKAIHDQNFTGKVVEVVSGDCLVVADDSIPFGSPMAERRVCLSSIRSPKMGNPRREEKPAPYAREAKEFLRQKLIGMEVIVQMEYSRKISPGDGVTTSGAGDRVMDFGSVFLPSPTKGDTAVAAAATPGANIAELIISRGLGTVVRHRDFEERSNHYDALLAAEARAIAGKKNIHSAKDSPALHIADLTVASAKKAKDFLPSLQRINQISAVVEYVLSGHRFKLYIPKESCSIAFAFSGVRCPGRGEPYSEEAIALMRRKIMQRDVEIVVENVDRTGTFLGSMWEKNSKTNAGTYLLEAGLAKMQTGFGADRIPEAHILEMAERSAKNQKLKIWENYVEGEEVVNGSSKVETRQKETLKVVVTEVLGGGRFYVQTVGDQKVASIQNQLAALSLKDAPIIGSFNPKKGDIVLAQFSLDNSWNRAMIVNGPRGAVQSPEEEFEVFYIDYGNQEIVPYSAIRPVDPSVSSAPGLAQLCRLAYIKVPGKEEDFGRDAGEYLHTVTLESGKEFRAVVEERDTSGGKVKGQGTGTELVVTLIAVDDEISVNAAMLQEGIARMEKRRRWEPKDKQAALDALEKFQDEARKSRTGIWEYGDIQSDDEDNVPVRKPGRG
B2: PAB2 (recombinant) (protein, UniProt P42731 1-629)
chain: MAQVQLQGQTPNGSTAAVTSAPATSGGATATQFGNTSLYVGDLDFNVTDSQLFDAFGQMGTVVTVRVCRDLVTRRSLGYGYVNFTNPQDAARAIQELNYIPLYGKPIRVMYSHRDPSVRRSGAGNIFIKNLDESIDHKALHDTFSSFGNIVSCKVAVDSSGQSKGYGFVQYANEESAQKAIEKLNGMLLNDKQVYVGPFLRRQERDSTANKTKFTNVYVKNLAESTTDDDLKNAFGEYGKITSAVVMKDGEGKSKGFGFVNFENADDAARAVESLNGHKFDDKEWYVGRAQKKSERETELRVRYEQNLKEAADKFQSSNLYVKNLDPSISDEKLKEIFSPFGTVTSSKVMRDPNGTSKGSGFVAFATPEEATEAMSQLSGKMIESKPLYVAIAQRKEDRRVRLQAQFSQVRPVAMQPSVGPRMPVYPPGGPGIGQQMFYGQAPPAMIPPQPGYGYQQQLVPGMRPGGGPVPSFFMPMVQPQQQRPGGGRRPGGIQHSQQQNPMMQQQMHPRGRMFRYPQGRGGSGDVPPYDMGNNMPLTIGALASNLSNATPEQQRTMLGEVLYPLVEQVEAESAAKVTGMLLEMDQTEVLHLLESPEALKAKVAEAMDVLRSVAAGGATEQLASLNLS
B3: RBP47b (recombinant) (protein, UniProt Q0WW84 1-435)
chain: MQTTNGSDSTLATSGATPPNQQTPPPPQQWQQQQQQQQQWMAAMQYPPAAAMMMMQQQQMLMYPHQYVPYNQGPYQQHHPQLHQYGSYQQHQHQQHKAIDRGSGDDVKTLWVGDLLHWMDETYLHSCFSHTGEVSSVKVIRNKLTSQSEGYGFVEFLSRAAAEEVLQNYSGSVMPNSDQPFRINWASFSTGEKRAVENGPDLSVFVGDLSPDVTDVLLHETFSDRYPSVKSAKVVIDSNTGRSKGYGFVRFGDENERSRALTEMNGAYCSNRQMRVGIATPKRAIANQQQHSSQAVILAGGHGSNGSMGYGSQSDGESTNATIFVGGIDPDVIDEDLRQPFSQFGEVVSVKIPVGKGCGFVQFADRKSAEDAIESLNGTVIGKNTVRLSWGRSPNKQWRGDSGQQWNGGYSRGHGYNNGGGYANHHDSNNYHGEN
B4: ECT2 (recombinant) (protein, UniProt Q9LJE5 1-667)
chain: MATVAPPADQATDLLQKLSLDSPAKASEIPEPNKKTAVYQYGGVDVHGQVPSYDRSLTPMLPSDAADPSVCYVPNPYNPYQYYNVYGSGQEWTDYPAYTNPEGVDMNSGIYGENGTVVYPQGYGYAAYPYSPATSPAPQLGGEGQLYGAQQYQYPNYFPNSGPYASSVATPTQPDLSANKPAGVKTLPADSNNVASAAGITKGSNGSAPVKPTNQATLNTSSNLYGMGAPGGGLAAGYQDPRYAYEGYYAPVPWHDGSKYSDVQRPVSGSGVASSYSKSSTVPSSRNQNYRSNSHYTSVHQPSSVTGYGTAQGYYNRMYQNKLYGQYGSTGRSALGYGSSGYDSRTNGRGWAATDNKYRSWGRGNSYYYGNENNVDGLNELNRGPRAKGTKNQKGNLDDSLEVKEQTGESNVTEVGEADNTCVVPDREQYNKEDFPVDYANAMFFIIKSYSEDDVHKSIKYNVWASTPNGNKKLAAAYQEAQQKAGGCPIFLFFSVNASGQFVGLAEMTGPVDFNTNVEYWQQDKWTGSFPLKWHIVKDVPNSLLKHITLENNENKPVTNSRDTQEVKLEQGLKIVKIFKEHSSKTCILDDFSFYEVRQKTILEKKAKQTQKQVSEEKVTDEKKESATAESASKESPAAVQTSSDVKVAENGSVAKPVTGDVVANGC

molecular target: FUST1 (recombinant, forming droplets in vitro) (Arabidopsis thaliana) (UniProt F4JFL5); assay: in vitro partitioning into condensates (confocal microscopy); 2.5 μM of each protein with 2.5 μM FUST1 droplets in 40 mM Tris-HCl pH 7.4 and 100 mM NaCl; compared at 4 °C and 37 °C; both purified

binding, binds:
B1
B2
B3
B4

Results are given in words; binding and its absence hold for the method and conditions named. A result given as binding can be weak or reduced; the word gives no strength.
